Laboratory results from PubChem BioAssay AID1741 (Vanderbilt High Throughput Screening Facility, 2009).
In all, about 1,700 compounds went through this assay and about 150 (8.8%) were called active. This list was built around the results that the source calls inconclusive (neither active nor inactive); the mix of calls is not that of the screen.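 How the source made its calls: active means fluorescence change differing from the plate's solvent-only control wells at 99.7% confidence in both duplicates, whether higher or lower; inconclusive means differs from solvent controls in only one of two duplicates; inactive means the rest.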

Protein sequences, listed by entry. Tags and fused reporters are not part of them.
UniProt P08485, whole entry, looked up: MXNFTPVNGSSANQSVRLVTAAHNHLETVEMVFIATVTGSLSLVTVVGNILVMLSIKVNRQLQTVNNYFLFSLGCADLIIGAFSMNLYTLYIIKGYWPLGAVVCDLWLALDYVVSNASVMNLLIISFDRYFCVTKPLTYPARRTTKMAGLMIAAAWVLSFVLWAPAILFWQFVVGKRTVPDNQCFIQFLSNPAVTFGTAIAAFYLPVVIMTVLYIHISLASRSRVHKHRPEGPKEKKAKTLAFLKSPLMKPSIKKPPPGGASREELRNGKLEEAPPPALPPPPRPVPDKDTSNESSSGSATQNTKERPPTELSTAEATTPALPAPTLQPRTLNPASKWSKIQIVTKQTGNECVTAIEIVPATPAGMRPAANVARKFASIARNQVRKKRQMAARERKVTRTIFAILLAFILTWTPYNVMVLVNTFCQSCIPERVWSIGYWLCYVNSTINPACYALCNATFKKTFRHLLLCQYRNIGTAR

Biological target: Muscarinic acetylcholine receptor M4 (Rattus norvegicus) (UniProt P08485)
Test: rat M4 muscarinic receptor activation – cell-based, agonist mode, counter-screen for M1 allosteric modulator project, confirmation (AID 1741)
Conditions: CHO M4/Gqi5 cells, Fluo-4 calcium fluorescence, at 10 µM, actives lie on both sides

Compound	fluorescence change (max-min)
O=C(Cc1cccs1)Nc1cccc(C(=O)Nc2ccco2)c1	inconclusive: -48
O=C(c1cc(-c2ccccc2)nc2ccccc12)N1CCN(c2ccccn2)CC1	inactive: -41
N#C/C(C(=O)NCc1ccco1)=C1/SC(Cc2ccc(F)cc2)C(=O)N1c1ccccc1 (centres undefined)	inconclusive: -65
O=C(CCCn1c(=S)[nH]c2cc3c(cc2c1=O)OCO3)N1CCN(c2ccccc2)CC1	inactive: -60.1
CCOc1ccc(N=Cc2c(O)cc(C)oc2=O)cc1	inconclusive: -28.2
CCN(CC)c1nc2ccccc2nc1C(C#N)C(=O)NCCc1ccccc1 (centres undefined)	active: 1720
CN1CC=C2C(C#N)=C(N)C(C#N)(C#N)C(c3cccc(Cl)c3Cl)C2C1 (centres undefined)	active: 236
Cc1cccn2c(=O)c3cc(C(=O)NCc4ccco4)c(=N)n(CCOCCO)c3nc12	inconclusive: 75.7
CCOC(=O)SC1=N/C(=C\c2ccc(N(C)C)cc2)C(=O)S1	inconclusive: -129
COc1ccccc1N1CCN(Cc2nc(N)nc(Nc3ccc(C)c(Cl)c3)n2)CC1	inconclusive: -91.8
O=C(c1ccc(Cn2c(=O)[nH]c3ccccc3c2=O)cc1)N1CCN(c2ccccn2)CC1	inactive: -19.9
CCOC(=O)C1CCCN(c2cc(C)nc3cc(-c4ccc(F)cc4)nn23)C1 (centres undefined)	inactive: -23.2
CCOC(=O)N1CCC(NCCNC(=O)c2cccs2)CC1	inconclusive: -70.4
CC(C)N(C(=O)CN(C#N)c1nc(N(C)C)nc(N(C)C)n1)c1ccccc1	inactive: -14.4
CCCCn1c(=NC(=O)c2cccnc2)c(C(=O)OCC)cc2c(=O)n3ccccc3nc21	inconclusive: -142
CCOC(=O)C1CCCN(C(=O)c2cc(Nc3ccc(OC)c(OC)c3)nc3ccccc23)C1 (centres undefined)	inconclusive: -126
Cc1csc(NC(=O)c2sc3nc(-c4cccs4)ccc3c2N)n1	inconclusive: 116
COc1cccc(C2C3CN(C)CC=C3C(C#N)=C(N)C2(C#N)C#N)c1OC (centres undefined)	active: 605
Cc1cc2n(n1)C(c1ccccc1Cl)Nc1ccccc1-2 (centres undefined)	inactive: -28.2
C=CCn1c(=O)/c(=C/c2ccc(C)o2)s/c1=C(/C#N)C(=O)c1ccccc1	active: 275
COc1ccc(CC(=O)Nc2cccc(-c3nnc(-c4cccc(C)c4)o3)c2)cc1OC	inconclusive: -48.7
O=C(COC(=O)CCc1c[nH]c(=O)[nH]1)Nc1ccccc1Cl	inconclusive: -94

Compound	fluorescence change (max-min)
CCOC(=O)COc1ccc(S(=O)(=O)NCc2ccncc2)cc1	inconclusive: -64.5
CC1Cc2ccccc2N1C(=O)c1ccc2snnc2c1 (centres undefined)	inconclusive: -122
CC(=O)Nc1nc2n(n1)C(c1ccc(F)cc1)C=C(c1ccccc1)N2 (centres undefined)	active: 92.6
COc1ccc(OC)c(S(=O)(=O)N2CCC(C(=O)Nc3ccc(C)c(C)c3)CC2)c1	inconclusive: -70.8
O=C(N1CCCC1)n1c(Cc2ccccc2)nc2ccccc21	active: -82.3
O=C(Nc1nc2nc(-c3ccccc3)cc(-c3ccccc3)n2n1)c1ccco1	inactive: -57.1
CN(C(=O)c1cnc(N2CCN(c3ncccn3)CC2)c2ccccc12)c1ccc(Cl)cc1	inconclusive: -79.3
COc1ccc(OC)c(N(CC(=O)Nc2ccc3c(c2)OCO3)S(=O)(=O)c2ccccc2)c1	inconclusive: -160
CCCOC1CCCN(C(=O)c2cc(Cl)c(Cl)cc2C(=O)O)C1 (centres undefined)	inactive: -23.7
CCOC(=O)C1CCCN(C(=O)Cn2sc3nc(C)cc(C)c3c2=O)C1 (centres undefined)	inactive: -34.7
Cc1c(C(=O)N2CCN(c3ccccc3F)CC2)sc2ncn(CC(=O)N3CCOCC3)c(=O)c12	inconclusive: -115
C=CCNc1ncnc2c1[nH]c1ccc(C)cc12	inactive: -21.7
O=C1CC(c2ccncc2)c2cc3c(cc2N1)OCO3 (centres undefined)	inconclusive: -46.2
CCOC(=O)c1c(NC(=O)CSc2nnc(-c3ccccc3C)n2C)sc(C(C)=O)c1C	inconclusive: -70.9
COc1ccc2[nH]c(=O)c(CN(Cc3cccnc3)C(=O)Nc3ccccc3)cc2c1	inconclusive: -66.5
CN1CC=C2C(C#N)=C(N)C(C#N)(C#N)[C@H](c3cccc(Cl)c3)C2C1 (some centres undefined)	inactive: 112
O=C(C1CCCN(S(=O)(=O)c2cccc3cccnc23)C1)N1CCc2ccccc21 (centres undefined)	inactive: -49.3
COc1ccc(Cn2nnnc2C(C(C)C)N(Cc2ccco2)Cc2cccs2)cc1 (centres undefined)	inconclusive: -50.9
CCN(CC)S(=O)(=O)c1ccc(C(=O)N2CCN=C2SC)cc1	inactive: -47.4
CCOC(=O)C1=C(CS(=O)(=O)c2ccccc2)NC(=O)NC1c1ccccc1 (centres undefined)	inconclusive: -155
COc1ccc(C2C=C(c3cccs3)Nc3nc(CCCO)nn32)cc1 (centres undefined)	active: 2410
Cc1nc2[nH]c(=O)c3c(n2n1)NC1=C(C(=O)CC(C)(C)C1)C3c1ccc(F)cc1 (centres undefined)	inactive: 4.35
